PubChem BioAssay AID1159578 – Peter MacCallum Cancer Centre, 2015
Shown is one part, drawn at random, of about 18,000 deposited reagents. Of all reagents, about 1,030 (5.7%) were called active. 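Inactive calls also include pools with fewer than 3300 nuclei, whose migration was not assessed.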 Raw values vary from plate to plate and are shown uncorrected. Unmarked entries are inactive.

Assay: 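siRNA pools altering how lymphatic endothelial cells close a scratch wound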 (primary screen)
Cell system: human lymphatic endothelial cells
Knock-down reagent: siRNA pool against human genes, 40 nM
Timing: 48 h after transfection
Read-out: 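High-content imaging of dye-stained cells in a scratch assay measures filled wound area and nuclei per well; duplicate means given as ratio to mock and robust z-score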
Reading the numbers: migration robust z-score: higher = faster migration into the scratch; migration relative to mock: higher = more scratch area covered than mock; nuclei per well: higher = more cells in the well
Hit rule: 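Pools averaging fewer than 3300 nuclei are never called; remaining pools count as changed when migration robust z lies outside -2 to 2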
Calls: active = migration changed; inactive = no migration change, or too few cells

gene symbol	migration robust z-score	migration class with cell-count check	migration relative to mock	nuclei per well, duplicate mean
MFN2 (GeneID 9927)	0.55	migration z between -2 and 2; enough cells	0.91	4963
KIAA2013 (GeneID 90231)	0.99	migration z between -2 and 2; enough cells	1.14	5804
TRMT11 (GeneID 60487)	0.96	migration z between -2 and 2; enough cells	1.13	5814
NLGN2 (GeneID 57555)	0.13	migration z between -2 and 2; enough cells	0.83	6034
PGRMC1 (GeneID 10857)	-0.36	migration z between -2 and 2; enough cells	0.74	5826
EXOSC2 (GeneID 23404)	-0.26	migration z between -2 and 2; enough cells	0.82	5742
GLRA1 (GeneID 2741)	-1.48	migration z between -2 and 2; enough cells	0.52	4071
SAT1 (GeneID 6303)	1.53	migration z between -2 and 2; enough cells	1.1	5082
ZNF14 (GeneID 7561)	-0.93	migration z between -2 and 2; enough cells	0.64	7586
MGAT2 (GeneID 4247)	0.56	migration z between -2 and 2; enough cells	1.03	6168
RNASE12 (GeneID 493901)	0.08	migration z between -2 and 2; enough cells	0.9	5214
PTOV1 (GeneID 53635)	-0.09	migration z between -2 and 2; enough cells	0.86	5984
LRRFIP1 (GeneID 9208)	0.04	migration z between -2 and 2; enough cells	0.9	6110
SNRPE (GeneID 6635)	-1.92	migration z between -2 and 2; enough cells	0.38	4468
BRAP (GeneID 8315)	-0.23	migration z between -2 and 2; enough cells	0.76	6468
SLC25A17 (GeneID 10478)	3.66 (active)	migration z above 2; enough cells	1.84	5924
BIRC2 (GeneID 329)	1.09	migration z between -2 and 2; enough cells	1.02	4901
SIRT4 (GeneID 23409)	0.88	migration z between -2 and 2; enough cells	1.12	5799
THAP10 (GeneID 56906)	0.44	migration z between -2 and 2; enough cells	1	5268
GABRB2 (GeneID 2561)	-1.87	migration z between -2 and 2; enough cells	0.44	4249
ZNF652 (GeneID 22834)	1.38	migration z between -2 and 2; enough cells	1.24	7620
DNASE1L3 (GeneID 1776)	-0.65	migration z between -2 and 2; enough cells	0.68	5169
SLCO3A1 (GeneID 28232)	-0.5	migration z between -2 and 2; enough cells	0.71	4588

An excerpt from above, reduced to “migration relative to mock”:
BRAP (GeneID 8315)	0.76
SLC25A17 (GeneID 10478)	1.84 (active)
BIRC2 (GeneID 329)	1.02
SIRT4 (GeneID 23409)	1.12
